Source: US20100069462A1 (JICHI MEDICAL UNIVERSITY, published 2010)
These are yes or no findings as the source states them, for the method shown. Binding seen in cells or lysates may run through a third protein. Some binding calls cover weakened binding; strength is not graded here.

The chains behind the UniProt entries cited, without tags or fusion partners. Where a name states a change or a piece, a line headed by the entry shows the natural chain unless it says otherwise.
UniProt O00165: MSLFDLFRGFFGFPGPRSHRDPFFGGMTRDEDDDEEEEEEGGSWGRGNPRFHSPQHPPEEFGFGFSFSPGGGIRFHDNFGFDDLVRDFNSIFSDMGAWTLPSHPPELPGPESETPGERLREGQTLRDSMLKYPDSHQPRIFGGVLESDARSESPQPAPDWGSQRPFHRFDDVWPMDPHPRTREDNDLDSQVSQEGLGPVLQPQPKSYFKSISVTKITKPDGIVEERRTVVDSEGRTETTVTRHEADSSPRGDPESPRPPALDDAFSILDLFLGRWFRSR
UniProt O35129: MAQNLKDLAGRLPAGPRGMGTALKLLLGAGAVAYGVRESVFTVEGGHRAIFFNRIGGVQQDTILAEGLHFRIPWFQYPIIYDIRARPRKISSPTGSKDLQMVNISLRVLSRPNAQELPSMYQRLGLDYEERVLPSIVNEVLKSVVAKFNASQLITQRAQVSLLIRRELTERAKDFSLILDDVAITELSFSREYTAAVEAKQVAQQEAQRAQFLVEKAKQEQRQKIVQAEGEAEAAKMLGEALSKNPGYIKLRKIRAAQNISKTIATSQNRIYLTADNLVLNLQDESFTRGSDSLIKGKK

Legend:
[1] = molecular target: Hax-1-FLAG protein (FLAG tag fused to the C-terminus of the Hax-1 protein) (human) (UniProt O00165); assay: in vitro binding experiment (summary of Example 4, GST pull-down)
[2] = molecular target: Hax-1-FLAG protein (FLAG tag fused to the C-terminus of the Hax-1 protein) (human) (UniProt O00165); assay: in vitro GST pull-down on glutathione-sepharose beads, anti-FLAG Western blot

## glutathione S-transferase (GST)-PHB2 fusion protein (from UniProt O35129 1-299)
[1]
  binding: binds
[2]
  binding: binds
